In article PMC11215701:
These are yes or no findings as the source states them, for the method shown. Binding seen in cells or lysates may run through a third protein. Some entries that bind do so weakly or less than the wild type.

The chains behind the UniProt entries cited, without tags or fusion partners. Residues count along the entry.
UniProt P09382: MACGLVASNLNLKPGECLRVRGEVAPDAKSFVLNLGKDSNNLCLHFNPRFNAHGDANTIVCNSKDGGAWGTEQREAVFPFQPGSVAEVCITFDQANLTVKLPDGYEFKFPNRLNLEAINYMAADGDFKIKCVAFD
UniProt P08575, residues 26-1306: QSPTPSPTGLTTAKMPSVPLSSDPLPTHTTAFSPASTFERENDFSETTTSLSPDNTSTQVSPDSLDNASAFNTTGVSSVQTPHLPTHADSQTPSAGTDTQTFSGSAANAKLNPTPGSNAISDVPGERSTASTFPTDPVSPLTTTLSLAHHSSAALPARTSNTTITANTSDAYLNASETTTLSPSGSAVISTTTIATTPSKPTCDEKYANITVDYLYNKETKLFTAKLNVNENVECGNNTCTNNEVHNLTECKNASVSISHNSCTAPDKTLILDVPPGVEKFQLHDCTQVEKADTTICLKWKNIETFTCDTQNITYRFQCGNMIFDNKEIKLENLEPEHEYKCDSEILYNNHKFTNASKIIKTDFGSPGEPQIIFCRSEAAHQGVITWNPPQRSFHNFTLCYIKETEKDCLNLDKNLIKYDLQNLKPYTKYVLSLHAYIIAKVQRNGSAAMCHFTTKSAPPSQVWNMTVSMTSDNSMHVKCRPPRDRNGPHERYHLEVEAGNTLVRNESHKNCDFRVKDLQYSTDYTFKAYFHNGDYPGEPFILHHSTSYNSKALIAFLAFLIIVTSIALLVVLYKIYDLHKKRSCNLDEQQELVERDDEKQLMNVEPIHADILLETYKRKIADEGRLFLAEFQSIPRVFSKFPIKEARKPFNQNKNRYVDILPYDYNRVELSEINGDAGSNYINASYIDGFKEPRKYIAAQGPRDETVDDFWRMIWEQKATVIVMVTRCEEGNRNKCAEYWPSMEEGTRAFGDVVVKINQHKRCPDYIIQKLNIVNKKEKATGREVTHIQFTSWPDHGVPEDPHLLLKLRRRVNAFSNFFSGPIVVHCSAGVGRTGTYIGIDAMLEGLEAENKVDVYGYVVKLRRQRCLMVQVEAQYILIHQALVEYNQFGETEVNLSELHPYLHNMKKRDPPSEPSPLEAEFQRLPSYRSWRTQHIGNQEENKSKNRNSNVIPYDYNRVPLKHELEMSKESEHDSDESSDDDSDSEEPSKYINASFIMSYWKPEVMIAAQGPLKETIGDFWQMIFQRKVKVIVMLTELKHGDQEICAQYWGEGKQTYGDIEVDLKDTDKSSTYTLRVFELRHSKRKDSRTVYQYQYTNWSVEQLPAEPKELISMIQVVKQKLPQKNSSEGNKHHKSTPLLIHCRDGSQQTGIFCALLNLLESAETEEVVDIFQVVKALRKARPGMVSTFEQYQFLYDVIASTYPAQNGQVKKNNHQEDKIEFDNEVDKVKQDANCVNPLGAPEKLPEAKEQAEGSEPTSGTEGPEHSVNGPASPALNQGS

Target: recombinant Galectin-1 (UniProt P09382)
Assay: co-IP; recombinant Gal-1 2 uM (pre-treated with DMSO 0.02% or LLS30 2 uM, 4 h, 4°C) mixed with 30 ug T cell membrane protein for 4 h at 4°C; precipitated with anti-Gal-1 on Protein A/G Sepharose overnight at 4°C; PBS wash; elution with 150 mM glycine pH 2.5; immunoblot for CD45; only the target purified

CD45 (from UniProt P08575 26-1306) (receptor)
binding: binds
